Tested on: pts with pre-diabetes or diabetes and biopsy-proven NASH
Test: Global phase 2b randomized placebo-controlled ARREST trial, one-year results
Type: in vivo, human
Details: 400 mg and 600 mg QD, 1 year
Method: Overweight/obese pts with pre-diabetes or diabetes and biopsy-proven NASH (with NAS≥4; F<4) were included. Liver biopsy and liver fat measurement by MR spectroscopy (LF-MRS) were performed at baseline and week 52. Both read centrally. The primary endpoint was the absolute change from baseline in LF-MRS (600 mg vs. placebo, PLB; mixed model repeated measures). Key secondary endpoints included: NASH resolution without fibrosis worsening, ≥1 stage fibrosis reduction without NASH worsening and ALT reduction. 247 pts from 11 countries (US, Europe, Latin America) were randomized 2:2:1 to Aramchol™ 400 mg QD (N=101), 600 mg QD (N=98) or PLB (N=48). At baseline: 65% females, mean age 54.4 yrs, BMI 32.7 kg/m2, HbA1c 6.6%±1.0% (mean±SD), LF-MRS 28.5%±11.7% (mean±SD); 60% fibrosis stage 2-3 and NAS 5.12±1.00 (mean±SD). 89% of pts completed the study. The results of the study are summarized in FIGS. 16A-16B to FIGS.-20A-20B.

CCCCCCCCCCCCCCCCCCCC(=O)N[C@H]1CC[C@@]2(C)[C@@H](C1)C[C@@H](O)[C@@H]1[C@@H]2C[C@H](O)[C@]2(C)[C@@H]([C@H](C)CCC(=O)O)CC[C@@H]12 [Aramchol™, 3β-arachidylamido-7α, 12α-dihydroxy-5β-cholan-24-oic acid]
Serum lipid parameters: did not change | body weight: did not change
